For two compounds, LC retention time results are on record in the RepoRT retention time repository (doi:10.1016/j.jchromb.2020.122105).

Data set [1] can be described thus: HILIC, Waters XBridge BEH Amide, 100 × 2.1 mm, 2.5 µm, 0.5 mL/min, estimated dead time 0.44 min; A: water + 0.1% acetic acid + 10 mM ammonium acetate, pH 4; B: 5% water + 95% acetonitrile + 0.1% acetic acid + 10 mM ammonium acetate, pH 4; gradient (min/%B) 0/95 5/95 20/57 25/57 30/95 40/95. To be noted: stereoisomer not certain.
Data set [2] is described as follows: HILIC, Thermo Scientific Accucore HILIC, 100 × 2.1 mm, 2.6 µm, 0.5 mL/min, estimated dead time 0.44 min; A: water + 0.1% formic acid + 10 mM ammonium formate, pH 3; B: 5% water + 95% acetonitrile + 0.1% formic acid + 10 mM ammonium formate, pH 3; gradient (min/%B) 0/95 5/95 20/57 25/57 30/95 40/95. The following applies: stereoisomer not certain.

Take `O=C(O)C1=CC(=O)C(O)C(O)C1` (stereo not drawn) [3-DEHYDROSHIKIMATE]: the figures for the LC retention time in data set [1] and in data set [2] were 11.4 min and 11.5 min, respectively.

As to `O=C(O)C1=CC(O)C(O)C(O)C1` (stereo not drawn) [SHIKIMATE], the LC retention time in data set [1] is 12.6 min.
